The data set is described as follows: Metabolomics of fetal brain at E14.5. Format: in vivo, C57Bl/6J mice. To be noted: E14.5 fetal brain metabolite level; for fold of change ABX/SPF: ANOVA contrast ABX vs SPF; for fold of change GF/ABX: ANOVA contrast GF vs ABX; for fold of change GF/SPF: ANOVA contrast GF vs SPF; for fold of change GF/Sp: ANOVA contrast GF vs Sp; for fold of change Sp/ABX: ANOVA contrast Sp vs ABX; for fold of change Sp/SPF: ANOVA contrast Sp vs SPF.

On to `CCC=CCC=CCC=CCC=CCC=CCC=CCCC(=O)OC(CC(=O)[O-])C[N+](C)(C)C` (stereo not drawn) [compound 1529], for which the “fold of change ABX/SPF” value was 0.82, the “fold of change GF/ABX” value is listed as 0.99, the “fold of change GF/SPF” value stood at 0.81 and the “fold of change GF/Sp” value is 0.96. Also, the “fold of change Sp/ABX” value is 1.03 and the “fold of change Sp/SPF” value was found to be 0.84.

With `CCCCCCCCCCCCCCC(=O)OC(CC(=O)[O-])C[N+](C)(C)C` (stereo not drawn) [compound 1536], the “fold of change ABX/SPF” value is 0.73, the “fold of change GF/ABX” value stood at 1.45, the “fold of change GF/SPF” value is 1.06 and the “fold of change GF/Sp” value is listed as 1.13. Moreover, the “fold of change Sp/ABX” value was determined as 1.28 and the “fold of change Sp/SPF” value came out at 0.93.

Regarding `CCCCCC=CCC=CCC=CCC=CCC=CCCC(=O)OC(CC(=O)[O-])C[N+](C)(C)C` (stereo not drawn) [compound 1537], the “fold of change ABX/SPF” value is recorded as 0.73, the “fold of change GF/ABX” value came to 1.14, the “fold of change GF/SPF” value worked out at 0.83 and the “fold of change GF/Sp” value came to 0.85. Also, the “fold of change Sp/ABX” value is reported as 1.34 and the “fold of change Sp/SPF” value was 0.97.

Regarding `CCCCCCCCCCCCCC(O)CC(=O)OC(CC(=O)[O-])C[N+](C)(C)C` (stereo not drawn) [compound 1539], the “fold of change ABX/SPF” value came out at 0.82, the “fold of change GF/ABX” value is given as 0.73, the “fold of change GF/SPF” value was determined as 0.60 and the “fold of change GF/Sp” value was determined as 0.70. Moreover, the “fold of change Sp/ABX” value is recorded as 1.04 and the “fold of change Sp/SPF” value came out at 0.86.

In the case of `C[N+](C)(C)CCCC(=O)[O-]` [compound 1541], the “fold of change ABX/SPF” value was determined as 0.73, the “fold of change GF/ABX” value was found to be 1.05, the “fold of change GF/SPF” value is reported as 0.77 and the “fold of change GF/Sp” value is given as 0.93. For the same compound, the “fold of change Sp/ABX” value was found to be 1.13 and the “fold of change Sp/SPF” value worked out at 0.83.

Turning to `C[N+](C)(C)CC(O)CC(=O)[O-]` (stereo not drawn) [compound 1542], the “fold of change ABX/SPF” value is on record as 0.90, the “fold of change GF/ABX” value was found to be 1.05, the “fold of change GF/SPF” value amounted to 0.95 and the “fold of change GF/Sp” value worked out at 0.99. The “fold of change Sp/ABX” value came out at 1.06 and the “fold of change Sp/SPF” value is 0.95.

Take `CC(O)CC(=O)O` (stereo not drawn) [compound 1547]: the “fold of change ABX/SPF” value was determined as 1.05, the “fold of change GF/ABX” value is recorded as 3.16, the “fold of change GF/SPF” value stood at 3.32 and the “fold of change GF/Sp” value stood at 4.03. In addition, the “fold of change Sp/ABX” value was determined as 0.79 and the “fold of change Sp/SPF” value came to 0.82.

Regarding `CCCCCC(O)C(=O)O` (stereo not drawn) [compound 1565], the “fold of change ABX/SPF” value is 0.35, the “fold of change GF/ABX” value is listed as 2.23, the “fold of change GF/SPF” value was found to be 0.77 and the “fold of change GF/Sp” value stood at 0.81. For the same compound, the “fold of change Sp/ABX” value turned out to be 2.77 and the “fold of change Sp/SPF” value worked out at 0.96.

Regarding `CCCCCCCCC(O)C(=O)O` (stereo not drawn) [compound 1567], the “fold of change ABX/SPF” value was 0.70, the “fold of change GF/ABX” value came to 1.32, the “fold of change GF/SPF” value stood at 0.93 and the “fold of change GF/Sp” value worked out at 0.91. The “fold of change Sp/ABX” value is on record as 1.45 and the “fold of change Sp/SPF” value stood at 1.02.

Take `CCCCCCCC(O)CC(=O)O` (stereo not drawn) [compound 1582]: the “fold of change ABX/SPF” value was found to be 0.95, the “fold of change GF/ABX” value worked out at 1.02, the “fold of change GF/SPF” value turned out to be 0.97 and the “fold of change GF/Sp” value worked out at 0.90. Moreover, the “fold of change Sp/ABX” value came out at 1.14 and the “fold of change Sp/SPF” value was 1.08.

For the compound `CCCCC[C@H](O)/C=C/C=C/C/C=C\CCCC(=O)O` [compound 1711], the “fold of change ABX/SPF” value was 0.40, the “fold of change GF/ABX” value stood at 1.61, the “fold of change GF/SPF” value is reported as 0.64 and the “fold of change GF/Sp” value stood at 0.92. Besides, the “fold of change Sp/ABX” value is given as 1.75 and the “fold of change Sp/SPF” value is 0.69.

As for `CCCCCCCC/C=C\CCCCCCCC(=O)NCCO` [compound 1718], the “fold of change ABX/SPF” value is reported as 0.83, the “fold of change GF/ABX” value was 0.87, the “fold of change GF/SPF” value amounted to 0.72 and the “fold of change GF/Sp” value is given as 0.92. Also, the “fold of change Sp/ABX” value is 0.95 and the “fold of change Sp/SPF” value is recorded as 0.78.

For `CCCCCCCCCCCCCCCC(=O)NCCO` [compound 1721], the “fold of change ABX/SPF” value is 0.95, the “fold of change GF/ABX” value worked out at 0.98, the “fold of change GF/SPF” value worked out at 0.92 and the “fold of change GF/Sp” value is given as 1.05. In addition, the “fold of change Sp/ABX” value was 0.93 and the “fold of change Sp/SPF” value is listed as 0.88.

In the case of `CCCCCCCCCCCCCCCCCC(=O)NCCS(=O)(=O)O` [compound 1731], the “fold of change ABX/SPF” value was 0.79, the “fold of change GF/ABX” value is recorded as 0.80, the “fold of change GF/SPF” value stood at 0.63 and the “fold of change GF/Sp” value is 1.01. Further, the “fold of change Sp/ABX” value is listed as 0.79 and the “fold of change Sp/SPF” value came to 0.63.

In the case of `CCCCCCCCCCCCCCCC(=O)NCCS(=O)(=O)O` [compound 1732], the “fold of change ABX/SPF” value worked out at 0.73, the “fold of change GF/ABX” value is on record as 0.65, the “fold of change GF/SPF” value turned out to be 0.47 and the “fold of change GF/Sp” value is on record as 1.00. Also, the “fold of change Sp/ABX” value was 0.64 and the “fold of change Sp/SPF” value is 0.47.

For the compound `CCCCCC/C=C\CCCCCCCC(=O)NCCO` [compound 1744], the “fold of change ABX/SPF” value is listed as 0.84, the “fold of change GF/ABX” value was found to be 0.94, the “fold of change GF/SPF” value is given as 0.79 and the “fold of change GF/Sp” value stood at 1.00. Moreover, the “fold of change Sp/ABX” value was found to be 0.94 and the “fold of change Sp/SPF” value was 0.79.

Consider `OC1C(O)C(O)C(O)C(O)C1O` (stereo not drawn) [compound 1753], for which the “fold of change ABX/SPF” value is 0.64, the “fold of change GF/ABX” value is on record as 0.93, the “fold of change GF/SPF” value is reported as 0.60 and the “fold of change GF/Sp” value worked out at 0.81. In addition, the “fold of change Sp/ABX” value is recorded as 1.15 and the “fold of change Sp/SPF” value stood at 0.74.

With `OC1C(O)C(O)C(O)C(O)C1O` (stereo not drawn) [compound 1754], the “fold of change ABX/SPF” value came to 0.72, the “fold of change GF/ABX” value is 1.24, the “fold of change GF/SPF” value is recorded as 0.90 and the “fold of change GF/Sp” value is 0.53. In addition, the “fold of change Sp/ABX” value is given as 2.35 and the “fold of change Sp/SPF” value worked out at 1.70.

`C[N+](C)(C)CCO` [compound 1782]: the “fold of change ABX/SPF” value came out at 0.83, the “fold of change GF/ABX” value amounted to 0.86, the “fold of change GF/SPF” value is on record as 0.72 and the “fold of change GF/Sp” value was determined as 1.03. For the same compound, the “fold of change Sp/ABX” value worked out at 0.84 and the “fold of change Sp/SPF” value came to 0.70.

As for `C[N+](C)(C)CCOP(=O)([O-])O` [compound 1783], the “fold of change ABX/SPF” value turned out to be 0.95, the “fold of change GF/ABX” value was found to be 1.02, the “fold of change GF/SPF” value turned out to be 0.97 and the “fold of change GF/Sp” value amounted to 1.05. Further, the “fold of change Sp/ABX” value was 0.97 and the “fold of change Sp/SPF” value turned out to be 0.92.

Turning to `C[N+](C)(C)CCOP(=O)([O-])OP(=O)(O)OCC1OC(n2ccc(N)nc2=O)C(O)C1O` (stereo not drawn) [compound 1784], the “fold of change ABX/SPF” value is listed as 0.66, the “fold of change GF/ABX” value amounted to 1.18, the “fold of change GF/SPF” value was determined as 0.77 and the “fold of change GF/Sp” value is recorded as 0.82. Besides, the “fold of change Sp/ABX” value was found to be 1.43 and the “fold of change Sp/SPF” value was 0.94.

For `C[N+](C)(C)CCOP(=O)([O-])OCC(O)CO` (stereo not drawn) [compound 1786], the “fold of change ABX/SPF” value worked out at 0.76, the “fold of change GF/ABX” value is 1.24, the “fold of change GF/SPF” value is recorded as 0.94 and the “fold of change GF/Sp” value is listed as 0.92. Moreover, the “fold of change Sp/ABX” value was 1.34 and the “fold of change Sp/SPF” value stood at 1.02.

Turning to `NCCOP(=O)(O)O` [compound 1788], the “fold of change ABX/SPF” value is listed as 0.82, the “fold of change GF/ABX” value was 0.98, the “fold of change GF/SPF” value turned out to be 0.80 and the “fold of change GF/Sp” value is given as 0.91. Besides, the “fold of change Sp/ABX” value was found to be 1.08 and the “fold of change Sp/SPF” value was 0.88.

For the compound `NCCOP(=O)(O)OP(=O)(O)OCC1OC(n2ccc(N)nc2=O)C(O)C1O` (stereo not drawn) [compound 1789], the “fold of change ABX/SPF” value was 0.80, the “fold of change GF/ABX” value came to 1.02, the “fold of change GF/SPF” value is 0.82 and the “fold of change GF/Sp” value is on record as 0.95. Further, the “fold of change Sp/ABX” value stood at 1.08 and the “fold of change Sp/SPF” value was determined as 0.87.

With `NCCOP(=O)(O)OCC(O)CO` (stereo not drawn) [compound 1790], the “fold of change ABX/SPF” value is on record as 0.83, the “fold of change GF/ABX” value came out at 1.07, the “fold of change GF/SPF” value amounted to 0.89 and the “fold of change GF/Sp” value was found to be 0.94. Further, the “fold of change Sp/ABX” value was 1.14 and the “fold of change Sp/SPF” value is 0.95.

With `NC(COP(=O)(O)OCC(O)CO)C(=O)O` (stereo not drawn) [compound 1791], the “fold of change ABX/SPF” value was determined as 0.81, the “fold of change GF/ABX” value was found to be 0.93, the “fold of change GF/SPF” value is reported as 0.75 and the “fold of change GF/Sp” value came out at 0.91. Also, the “fold of change Sp/ABX” value turned out to be 1.02 and the “fold of change Sp/SPF” value is 0.83.

Consider `O=P(O)(OCC(O)CO)OC1C(O)C(O)C(O)C(O)C1O` (stereo not drawn) [compound 1792], for which the “fold of change ABX/SPF” value was 0.87, the “fold of change GF/ABX” value is given as 0.84, the “fold of change GF/SPF” value is on record as 0.74 and the “fold of change GF/Sp” value is recorded as 0.88. Also, the “fold of change Sp/ABX” value turned out to be 0.96 and the “fold of change Sp/SPF” value is recorded as 0.84.

The record behind these values is US12491217B2, “Compositions and methods for promoting healthy neural development in an unborn baby” (The Regents of the University of California, priority 2019, dated 2025).
